## Library screening results

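Whole-cell assay for inhibitors of Mycobacterium tuberculosis growth, labelled Cornell in the record; the read-out is not stated. The concentration is filed as 10 mM, unlikely as a test dose, so the dose is not known. The record gives no direction; compounds strong in two other growth screens of this library score well above the rest, so higher reads as stronger inhibition. Size under these conditions: about 53,000 compounds, about 900 of them at 50% or above in at least one test.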

Results are given as percent effect.
The record does not define 0% and 100%; most values in the screen are far below 50% and negative numbers occur (in some assays of this library far below -100).
Compounds were drawn at random from those tested, without regard to their results.

SMILES,effect
CCCN1C(=O)C2(CCCCC2)NC1c1c[nH]nc1-c1cccnc1 (centres unmarked),-30.23
CN(C)CCNC(=O)c1cnc2c(c1)nc(-c1ccccc1Cl)n2C,7.412
Nc1nc2c(c(N3CCOCC3)n1)CCN(C(=O)c1ccc[nH]1)CC2,17.15
O=C(O)C(F)(F)F.O=C(O)C(F)(F)F.O=C(O)C(F)(F)F.[H][C@@]12CCN(Cc3cnn(C)c3)[C@]1([H])CC[C@@H](C(=O)Nc1cccnc1C)O2,22.94
CCC(C)N(Cc1cccnc1)C(=O)c1ccc(NS(=O)(=O)CC)cc1 (centres unmarked),47.01
CN(CCCNC(=O)C1CCCN(C(N)=O)C1)S(C)(=O)=O (centres unmarked),3.987
Cc1nc(C(C)(C)C)sc1C(=O)NCCNc1ncccn1,-6.598
Cn1cc(CN2CCc3c(cnc(-c4ccccc4)c3C(=O)O)C2)cn1.O=C(O)C(F)(F)F.O=C(O)C(F)(F)F,16.51
COc1cc(CCC(=O)NC2CCCN(C)C2)ccc1OCC(F)(F)F (centres unmarked),8.207
Fc1cccc(Cl)c1CNCc1ccccn1,3.821
COCc1nccc(C2CCCN(Cc3cccc(F)c3)C2)n1 (centres unmarked),-5.643
Cc1nc(CN2C(=O)COC3(CCN(Cc4ccco4)CC3)C2C)cs1.O=C(O)C(F)(F)F (centres unmarked),38.76
CC(C)c1ocnc1C(=O)N1CCCC(c2ccn[nH]2)C1 (centres unmarked),12.93
CNC(=O)c1ccc(CNC(=O)c2cc(C(C)C)n(C)n2)cc1,18.75
CCc1nc(CCNC(=O)C2CCOC2)sc1C (centres unmarked),-2.04
CCNC(=O)C1CCCN(c2ccc3ccc(F)cc3n2)C1 (centres unmarked),4.918
O=C(O)Cn1ccc(=O)c2ccc(Cl)cc21,-7.808
CN(C)CC1(O)CCCN(C(=O)CCn2cc(Cl)cn2)C1 (centres unmarked),-37.77
CS(=O)(=O)NC1CCCN(Cc2ccccn2)C1 (centres unmarked),2.694
COC(=O)CNC(=O)c1ccc(OC2CCN(S(C)(=O)=O)CC2)c(Cl)c1,-26.46
Cc1cc(C)n(CC2CCCN2C(=O)c2ccc3c(c2)nnn3C)n1 (centres unmarked),1.106
COc1ccccc1OC1CCN(C(=O)CCCN2CCOCC2)CC1,10.55
COc1cccc(CCNC(=O)CN2CCCC2c2noc(C)n2)c1 (centres unmarked),5.973
COCCN1C(=O)CCC12CCN(C(=O)CC1CC1)CC2,-7.803
COc1cccc(CN2CC3(CCNCC3)CCC2=O)c1OC,3.422
CN(Cc1nnc2n1CCC2)C(=O)c1ccc(=O)n(C)n1,-1.392
O=C(O)C(F)(F)F.[H][C@@]12OCCN(Cc3ccco3)[C@@]1([H])CC[C@H]2OCC1CC1,4.53
CCOc1ccccc1OCC(=O)NCc1ncc(C)c(OC)c1C,-20.54
Cc1nn(C)cc1-c1ccnc(N(C)Cc2ccoc2)n1,18.21
COCCNC(=O)N1CC(Cc2ccccc2F)C1,8.43
Cc1csc(Nc2cc(C3CN(C(C)C)C3)nc(C)n2)n1,18.04
CCc1cc(N2CCCNCC2)n2nc(C)c(C)c2n1,39.82
Cc1cc(C(C)(O)CNC(=O)C2(C)CCCC2)c(C)o1 (centres unmarked),32.83
CC(=O)N1CCOC[C@H](OCC(=O)N(C)C)C1,-1.994
CCOCCC(=O)NC(Cc1ccc(C)cc1)c1ccccn1 (centres unmarked),21.89
COCCN1CCC2(CC1)CN(C(C)=O)c1ccc(C)cc12.O=C(O)C(F)(F)F,-8.815
CCN(Cc1cccnc1)C1CCN(c2ccccc2)C1=O (centres unmarked),-3.238
COc1cccc(C(O)C(=O)N(C)CCc2ccccn2)c1 (centres unmarked),6.448
CCN(CC)c1ncc(Cl)c(C(=O)NC2CC2)n1,-5.923
CC(C)NC(=O)NCCCOC1CCOCC1,15.43
Cc1nnc2n1CCN(C(C(=O)NC1CC1)c1ccccc1)C2 (centres unmarked),18.2
O=S(=O)(c1ccc(-c2cnco2)cc1)N1CCC2(CCCNC2)C1 (centres unmarked),-4.976
CCOCCCNC(=O)c1nc2c(s1)CCCN2c1ccc(C)nn1.O=C(O)C(F)(F)F,6.732
CC(C)CNC(=O)C1CC(=O)N(c2n[nH]c3ccccc23)C1 (centres unmarked),-31.59
Cc1cc(-c2ccc(C(C)N3CCCCC3)cc2)cnc1N (centres unmarked),-12.34
CC/C=C(\C)CN1CCC(CNC(=O)c2c[nH]c(=O)c(Cl)c2)C1 (centres unmarked),-8.009
CC(C(=O)N1CCc2sccc2C1)N1CCC(S(N)(=O)=O)CC1 (centres unmarked),15.13
CCOC(=O)C1(NC(=O)CCNc2cc(C)ccc2OC)CCCCC1,27.72
Cc1cc(N2CCC(O)CC2)nc(C2CCCN2C)n1 (centres unmarked),7.073
COCCN1CCOCC12CCN(C(=O)c1ccncc1)CC2.O=C(O)C(F)(F)F,17.34
CC1c2ncc(COCC3CC3)n2CCN1C(=O)c1ccn(C)n1 (centres unmarked),14.69

5 of the entries, repeated:

{"smiles": "CN(CCCNC(=O)C1CCCN(C(N)=O)C1)S(C)(=O)=O", "stereo": "centres unmarked", "effect": 3.987}
{"smiles": "Cc1cc(-c2ccc(C(C)N3CCCCC3)cc2)cnc1N", "stereo": "centres unmarked", "effect": -12.34}
{"smiles": "Fc1cccc(Cl)c1CNCc1ccccn1", "effect": 3.821}
{"smiles": "CC1c2ncc(COCC3CC3)n2CCN1C(=O)c1ccn(C)n1", "stereo": "centres unmarked", "effect": 14.69}
{"smiles": "Cn1cc(CN2CCc3c(cnc(-c4ccccc4)c3C(=O)O)C2)cn1.O=C(O)C(F)(F)F.O=C(O)C(F)(F)F", "effect": 16.51}

From ChEMBL document CHEMBL3988442, “University of Dundee, Small-Polar-MMV Screening Library” (2021).